The series has as its target T1, BirA (biotin protein ligase, Group II) (Bacillus subtilis 168) (UniProt P0CI75).
T1 sequence (looked up): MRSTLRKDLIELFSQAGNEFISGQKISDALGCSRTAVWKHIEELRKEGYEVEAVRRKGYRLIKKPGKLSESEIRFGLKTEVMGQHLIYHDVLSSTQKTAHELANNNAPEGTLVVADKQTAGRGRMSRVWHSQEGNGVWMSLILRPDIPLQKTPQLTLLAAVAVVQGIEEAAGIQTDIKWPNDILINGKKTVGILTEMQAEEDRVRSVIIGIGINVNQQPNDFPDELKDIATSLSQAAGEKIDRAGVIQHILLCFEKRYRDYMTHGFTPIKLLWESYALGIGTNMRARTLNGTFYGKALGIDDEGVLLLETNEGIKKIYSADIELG
The series can be described thus: EMSA. The settings on record: no biotin/ATP added, BirA not hydroxylamine-treated (carries Bio-5'-AMP), some interaction; 50 mM Tris-HCl pH 8.0, 1 mM EDTA, 50 mM NaCl, 10% glycerol, 40 nM DNA, 15.6-500 nM BirA, 1 mM ATP, 1 mM MgCl2, 1 uM biotin; room temperature 30 min; 6% gel in 0.5X TBE; recombinant protein; residues 1-325; probe letters rebuilt from the primers and the genome. A general note: Mobility shift assays separate free from complexed probe on a gel.

The exact form of at least one protein or probe is not confirmed. A weaker result is weaker than the reference pair of the same experiment. Protein sequences can lack the tags named with them.

Consider one sequence from article PMC4016012, “Successful Conversion of the Bacillus subtilis BirA Group II Biotin Protein Ligase into a Group I Ligase” (PLoS ONE, 2014).

For “CCTTTCACTGATAACTGAAGAACGTGTAGCGCTTCTCACCTAAATTGTTAACCAATTATATTCAAAGGTTAACAATTAGAATATATTATTCTCTCCTGTTTCTGTCAATAGAAGAAAGGATC (double strand) [B. subtilis bioO (bioWAFDBI operator)]”, the binding result is listed as “binds more weakly”.
